Values from PubChem BioAssay AID1259405 (NCATS, 2018).

- Screen: 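Knock-downs that lift recombinant protein yield in hamster ovary cells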 (primary screen)
- Cells: Chinese hamster CHO-K1 ovary cells with stable secreted eGFP expression
- Reagents: single siRNA against mouse genes, 0.8 pmol siRNA per well (2 µl of 400 nM stock)
- Duration: 3 days
- Measured: 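Percent of the per-plate non-targeting control median for intracellular GFP per well by laser scanning cytometry and for cell viability by ATP luminescence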
- Scale: GFP, % of control: higher = more GFP per well, higher productivity; viability (ATP), % of control: higher = more viable cells (more ATP)
- Rule for the call: 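a knock-down is called active if GFP reaches 120% or more of non-targeting control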
Here is one part, drawn at random, of about 50,000 reagents tested. About 4,000 of them (8%) were called active. 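Mouse siRNA library applied to hamster cells; one well for each siRNA.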 The numbers tell different reagents against one gene apart. No sequences are given here.

no.	gene symbol	reagent no.	GFP, % of control	viability (ATP), % of control	outcome
1	Tmco4 (GeneID 77056)	1	73.8	85	inactive
2	Tmco4 (GeneID 77056)	2	195	134	active
3	Tmco4 (GeneID 77056)	3	61.8	65.2	inactive
4	Eif1b (GeneID 68969)	1	69.5	46.9	inactive
5	Eif1b (GeneID 68969)	2	48.2	39.5	inactive
6	Eif1b (GeneID 68969)	3	86.2	84.7	inactive
7	Pcdh1 (GeneID 75599)	1	75.7	69.7	inactive
8	Pcdh1 (GeneID 75599)	2	62.4	62.7	inactive
9	Pcdh1 (GeneID 75599)	3	51.7	41.7	inactive
10	Bicd1 (GeneID 12121)	1	52.1	51.1	inactive
11	Bicd1 (GeneID 12121)	2	90.8	101	inactive
12	Bicd1 (GeneID 12121)	3	94.9	93.2	inactive
13	Or4x6 (GeneID 258339)	1	77.6	59.1	inactive
14	Or4x6 (GeneID 258339)	2	44.2	53	inactive
15	Or4x6 (GeneID 258339)	3	92.9	91.6	inactive
16	Otulinl (GeneID 223433)	1	96.6	91.2	inactive
17	Otulinl (GeneID 223433)	2	79.5	110	inactive
18	Otulinl (GeneID 223433)	3	160	152	active
19	Osgin1 (GeneID 71839)	1	93.9	78.6	inactive
20	Osgin1 (GeneID 71839)	2	109	62.9	inactive
21	Osgin1 (GeneID 71839)	3	65.5	90.5	inactive
22	Mettl6 (GeneID 67011)	1	72.8	74	inactive
23	Mettl6 (GeneID 67011)	2	77.8	75.5	inactive
24	Mettl6 (GeneID 67011)	3	74.4	62.2	inactive
25	Birc2 (GeneID 11797)	1	74.2	77.3	inactive
26	Mcmbp (GeneID 210711)	1	82.5	90.8	inactive
27	Mcmbp (GeneID 210711)	2	37.4	36.2	inactive
28	Mcmbp (GeneID 210711)	3	57.8	66.2	inactive
29	Map6d1 (GeneID 208158)	1	56.5	73.1	inactive
30	Map6d1 (GeneID 208158)	2	66.5	72.5	inactive
31	Map6d1 (GeneID 208158)	3	88.3	57.2	inactive

The list goes on; the last 6 above are carried over.
no.	gene symbol	reagent no.	GFP, % of control	viability (ATP), % of control	outcome
26	Mcmbp (GeneID 210711)	1	82.5	90.8	inactive
27	Mcmbp (GeneID 210711)	2	37.4	36.2	inactive
28	Mcmbp (GeneID 210711)	3	57.8	66.2	inactive
29	Map6d1 (GeneID 208158)	1	56.5	73.1	inactive
30	Map6d1 (GeneID 208158)	2	66.5	72.5	inactive
31	Map6d1 (GeneID 208158)	3	88.3	57.2	inactive
32	Kctd12b (GeneID 207474)	1	44.7	55.4	inactive
33	Kctd12b (GeneID 207474)	2	105	58.2	inactive
34	Kctd12b (GeneID 207474)	3	78.5	66.6	inactive
35	Sptbn1 (GeneID 20742)	1	80.1	52.5	inactive
36	Sptbn1 (GeneID 20742)	2	59.9	67.8	inactive
37	Sptbn1 (GeneID 20742)	3	60.2	47.8	inactive
38	Mapkbp1 (GeneID 26390)	1	68.9	34.4	inactive
39	Mapkbp1 (GeneID 26390)	2	42	77.4	inactive
40	Mapkbp1 (GeneID 26390)	3	68.8	52.1	inactive
41	Lrrc41 (GeneID 230654)	1	64.4	86	inactive
42	Lrrc41 (GeneID 230654)	2	83	52.1	inactive
43	Lrrc41 (GeneID 230654)	3	104	101	inactive
44	Lpin1 (GeneID 14245)	1	57.9	62.3	inactive
45	Lpin1 (GeneID 14245)	2	91.4	85.3	inactive
46	Lpin1 (GeneID 14245)	3	82.5	75.3	inactive
47	Card19 (GeneID 68480)	1	103	97	inactive
48	Card19 (GeneID 68480)	2	86.2	92.2	inactive
49	Card19 (GeneID 68480)	3	35.9	33.1	inactive
50	Paf1 (GeneID 54624)	1	46.3	71.8	inactive
51	Paf1 (GeneID 54624)	2	116	77.9	inactive
52	Paf1 (GeneID 54624)	3	131	120	active
53	Nsun2 (GeneID 28114)	1	67.8	74.3	inactive
54	Nsun2 (GeneID 28114)	2	63.2	72.5	inactive
55	Nsun2 (GeneID 28114)	3	36.1	43.2	inactive
56	Frrs1 (GeneID 20321)	1	85.6	77.5	inactive
57	Frrs1 (GeneID 20321)	2	66.3	84.5	inactive
58	Frrs1 (GeneID 20321)	3	66.2	66.2	inactive
59	Dixdc1 (GeneID 330938)	1	66.5	85.8	inactive
60	Dixdc1 (GeneID 330938)	2	63.9	67.6	inactive
61	Dixdc1 (GeneID 330938)	3	55.9	67.7	inactive
62	Kctd12 (GeneID 239217)	1	76.7	69.2	inactive
63	Kctd12 (GeneID 239217)	2	80.8	81.1	inactive
64	Fzr1 (GeneID 56371)	1	64.8	67.2	inactive
65	Fzr1 (GeneID 56371)	2	136	36.3	active
66	Fzr1 (GeneID 56371)	3	73.5	56.7	inactive
67	Prr18 (GeneID 320111)	1	80.1	91.6	inactive
68	Prr18 (GeneID 320111)	2	104	55.4	inactive
69	Prr18 (GeneID 320111)	3	74.9	72.9	inactive
70	A530016L24Rik (GeneID 319942)	1	83	53.7	inactive
71	A530016L24Rik (GeneID 319942)	2	95.9	95.5	inactive
72	A530016L24Rik (GeneID 319942)	3	90.2	125	inactive
73	Vipr2 (GeneID 22355)	1	69.9	35.8	inactive
74	Vipr2 (GeneID 22355)	2	71.3	72.2	inactive
75	Vipr2 (GeneID 22355)	3	82.8	91.4	inactive
76	Gm5168 (GeneID 382275)	1	31.1	54.1	inactive
77	Gm5168 (GeneID 382275)	2	93	56.9	inactive
78	Gm5168 (GeneID 382275)	3	132	63.1	active
79	Sort1 (GeneID 20661)	1	72.3	60.9	inactive
80	Sort1 (GeneID 20661)	2	55.9	54.4	inactive
81	Sort1 (GeneID 20661)	3	41.6	45.3	inactive
82	Rps8 (GeneID 20116)	1	44.3	25.8	inactive
83	Rps8 (GeneID 20116)	2	72.6	76.7	inactive
84	Rps8 (GeneID 20116)	3	31.5	48.7	inactive
